About 7,700 (2.3%) of roughly 330,000 compounds were called active. The inconclusive results got no clear call from the source; some entries with a clear call stand among them for comparison. Calls follow the shape of the dose curve; as a rule, active = well fitted inhibition curve with a large enough effect; inconclusive = small, poorly fitted or top-dose-only effect, or effect the other way; inactive = flat fitted curve, though single readings scatter. Potencies of inconclusive entries are doubtful fits and often do not repeat.
Experiment: qHTS screen for small molecules that inhibit ELG1-dependent DNA repair in human embryonic kidney (HEK293T) cells expressing luciferase-tagged ELG1; also: nearly all actives have a fitted effect of over 55% in size
Details: HEK293T ELG1-luciferase reporter, luminescence, 16 h, DNA damage induced by 5-fluorouridine; activity change, negative = inhibition: at 46.1 µM (top of the series)
How it was run: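 Quantitative HTS, concentration-response format. 2,000 cells/well co-treated with 5-fluorouridine and compound, 16 hr in 5% CO2 at 37 °C; ONE-Glo luminescence read after 30 min.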
% is scaled to controls: 0 for no effect and ±100 for the full control effect; potency is read from the fitted curve at half-maximal effect.

SMILES	Potency	activity change, negative = inhibition
COc1cccc(Nc2nc(CC(C)=O)ns2)c1	inconclusive: 20.6 µM [activator, partial curve]	–
Cc1no[n+]([O-])c1COc1ccc(/C=C(\C#N)C(N)=O)cc1	–	inactive: 21.2%
Cc1ccc(C(=O)N/N=C\c2ccc(OC(=O)c3cccc(F)c3)cc2)cn1	inconclusive: 32.6 µM [activator, partial curve, poor fit]	–
Cc1ccc2sc(-c3ccc(NC(=O)c4cc(-n5cnnc5)ccc4Cl)cc3)nc2c1	inconclusive: 10.3 µM [activator, partial curve]	–
CC(=O)Nc1ccc(NC(=O)CSc2nnc(-c3cccnc3)o2)cc1	–	inactive: 7.85%
CS(=O)(=O)c1ccc2nc(NC(=O)c3ccc(S(=O)(=O)NCC4CCCO4)cc3)sc2c1 (stereo not drawn)	inconclusive: 29.1 µM [inhibitor, single point]	–
COc1ccc(-c2nnn(Cc3ccccc3F)n2)cc1	inconclusive: 11.6 µM [activator, partial curve]	–
CNC(=S)N/N=C(\C)c1ccccc1	inconclusive: 20.6 µM [activator, single point]	–
CCOC(=O)c1sc(NC(=O)CC(C)c2ccccc2)nc1C (stereo not drawn)	inconclusive: 22.4 µM [inhibitor, partial curve, poor fit]	–
CCCCCC(=O)Nc1nnc(CCc2ccccc2)s1	–	inactive: 12.5%
CC(C)COC(=O)N1CCCC1C(=O)O (stereo not drawn)	–	inconclusive: 47.8% [activator]
O=C(NCCN1C(=O)S/C(=C/c2ccccc2)C1=O)C1CC(=O)N(Cc2ccccc2)C1 (stereo not drawn)	–	inactive: -15.7%
COc1ccc(C(=O)c2c(C)c3cc(C)ccc3n2CC(O)CN2CCOCC2)cc1 (stereo not drawn)	inconclusive: 18.4 µM [inhibitor, partial curve, poor fit]	–
CC[N+](C)(CC)CCC(c1ccccc1)C1CCCCC1 (stereo not drawn)	–	inactive: -5.96%
COc1cccc(C(=O)C2CCCN(C(=O)c3ccccn3)C2)c1 (stereo not drawn)	inconclusive: 2.31 µM [activator, partial curve, poor fit]	–
Cc1ccc(NC(=O)NCC(c2ccccc2)N(C)C)cc1 (stereo not drawn)	inconclusive: 18.3 µM [activator, single point]	–
CCC(=O)N1CCN(c2ccccc2NC(=O)COc2cccc(C)c2C)CC1	inconclusive: 16.4 µM [inhibitor, partial curve]	–
Cc1onc(-c2ccccc2Cl)c1C(=O)N(C)CC(=O)Nc1ccc(F)c(F)c1F	–	inactive: 1.29%
COc1cc(C(=O)Oc2cccc(Nc3ncnc4ccccc34)c2)cc(OC)c1OC	active: 2.91 µM	–
CN(c1ccccc1C(=O)NC1CCCCC1)S(=O)(=O)c1ccccc1	–	inactive: -8.01%
Cc1c(NC(=O)c2ccc(-c3ccccc3)cc2)cccc1C(=O)O	inconclusive: 0.231 µM [activator, partial curve]	–
CCc1cc(=O)oc2c3c(cc(OCC(=O)NCCCCCC(=O)O)c12)OC(C)(C)CC3	inconclusive: 20.6 µM [activator, partial curve, poor fit]	–
O=C(c1ccc(CNS(=O)(=O)c2ccccc2)cc1)N1CCN(c2ccccn2)CC1	–	inactive: 16.6%

SMILES	Potency	activity change, negative = inhibition
CCOC(=O)c1[nH]c2ccc(F)cc2c1NC(=O)C1=COCCO1	inconclusive: 29.1 µM [inhibitor, single point]	–
COC(=O)c1ccc2c(=O)[nH]c(COC(=O)c3[nH]c(C)c(C(C)=O)c3C)nc2c1	active: 5.8 µM	–
Cc1ccc(OCCNc2ccc(C(F)(F)F)cc2[N+](=O)[O-])cc1	inconclusive: 18.4 µM [activator, partial curve]	–
CC(C)(C)NC(=O)C[C@H]1C[C@H](C(=O)N2CCOCC2)[C@@]2(C)c3[nH]c4ccc(Cl)cc4c3CCN2C1=O	–	inactive: 2.1%
CC1(C)NC(=O)N(CC(=O)N2CCN(c3cccc(C(F)(F)F)c3)CC2)C1=O	inconclusive: 29.1 µM [inhibitor, single point]	–
CC(C)Cn1c(N)c(C(=O)NCCN2CCOCC2)c2nc3ccccc3nc21	inconclusive: 4.61 µM [inhibitor, single point]	–
CS(=O)(=O)N(CC(=O)NC1CC2CCC1C2)c1ccc(Oc2ccccc2)cc1 (stereo not drawn)	inconclusive: 25.9 µM [inhibitor, partial curve, poor fit]	–
CNC(=O)/C(C#N)=C\c1cc(C)n(-c2ccc(N3CCOCC3)cc2)c1C	inconclusive: 23.1 µM [activator, partial curve]	–
COc1ccc(NCc2ccc([N+](=O)[O-])s2)cc1	–	inactive: -17.7%
Cc1cc2cc(C(c3nnnn3Cc3ccccc3)N3CCc4ccccc43)c(=O)[nH]c2cc1C (stereo not drawn)	inconclusive: 23.1 µM [inhibitor, partial curve]	–
Cc1cccc(C)c1Nc1nnc(SC/C(O)=C(\C#N)c2nc3ccccc3[nH]2)s1	inconclusive: 25.9 µM [inhibitor, single point]	–
Cc1c(/C(O)=C2/C(=O)C(=O)N(CCN3CCOCC3)C2c2cccs2)cnn1-c1ccccc1 (stereo not drawn)	inconclusive: 7.31 µM [activator, partial curve]	–
COc1cccc(-c2cc(C(=O)N3CCc4ccccc4C3)[nH]n2)c1	inconclusive: 11.6 µM [activator, partial curve]	–
c1cn(-c2ccc(-c3ccnc4ncnn34)cc2)cn1	inconclusive: 18.3 µM [activator, single point]	–
C[n+]1nc(Nc2ccccc2)sc1-c1ccc(O)cc1	–	inactive: 7.21%
Clc1ccc(N2N=C(c3cccs3)CC2c2ccco2)cc1 (stereo not drawn)	–	inactive: 10.3%
COc1ccc(/C=N/n2c(C)nc3sc(C)c(C)c3c2=O)cc1	inconclusive: 0.259 µM [inhibitor, partial curve, poor fit]	–
COc1ccccc1NS(=O)(=O)c1ccc(C)c(C(=O)Nc2cc(C)on2)c1	inconclusive: 25.9 µM [inhibitor, partial curve, poor fit]	–
Cc1ccc(/C(N)=N/OC(=O)c2ccc(C)cc2Cl)cc1	inconclusive: 0.82 µM [activator, partial curve]	–
CCCCCCCNC(=O)C1(CC2CC(c3ccccc3)=NO2)CCN(C(=O)c2ccccc2)CC1 (stereo not drawn)	inconclusive: 3.16 µM [inhibitor, single point]	–
Fc1ccc(-c2nc(-c3cccs3)[nH]c2-c2ccc(F)cc2)cc1	inconclusive: 20.6 µM [inhibitor, single point]	–
Cc1ccc(NC(=O)OCCNC(=O)OC(C)C)cc1	inconclusive: 20.6 µM [activator, single point]	–
O=C(CSc1ncnc2c1cnn2-c1ccccc1)Nc1ccc2c(c1)OCO2	–	inactive: -10.3%

Laid out differently: entries from further up
SMILES,Potency,"activity change, negative = inhibition"
CC(C)(C)NC(=O)C[C@H]1C[C@H](C(=O)N2CCOCC2)[C@@]2(C)c3[nH]c4ccc(Cl)cc4c3CCN2C1=O,–,inactive: 2.1%
Cc1cc2cc(C(c3nnnn3Cc3ccccc3)N3CCc4ccccc43)c(=O)[nH]c2cc1C (stereo not drawn),"inconclusive: 23.1 µM [inhibitor, partial curve]",–
CCCCCCCNC(=O)C1(CC2CC(c3ccccc3)=NO2)CCN(C(=O)c2ccccc2)CC1 (stereo not drawn),"inconclusive: 3.16 µM [inhibitor, single point]",–

Following part:

SMILES	Potency	activity change, negative = inhibition
O=C(NC1CCCCC1)c1noc2c1CCCCC2	inconclusive: 9.2 µM [activator, partial curve]	–
COc1cc(SC)ccc1C(=O)Nc1ccc2ncccc2c1	inconclusive: 2.06 µM [activator, full curve]	–
CCOc1ccc(N2CC(C(=O)Nc3ccc4c(c3)OCCO4)CC2=O)cc1 (stereo not drawn)	inconclusive: 11.6 µM [activator, partial curve]	–
COCC(C)n1c(C)cc(C(=O)COC(=O)c2cc(=O)[nH]c3ccccc23)c1C (stereo not drawn)	inconclusive: 0.517 µM [activator, full curve]	–
CN(C)S(=O)(=O)c1ccc(Cl)c(C(=O)OCC(=O)c2ccco2)c1	–	inactive: 0%
O=C(c1ccccc1)c1ccc(N2CCNCC2)cc1	inconclusive: 13 µM [activator, single point]	–
CCNc1nc(NC(C)C)nc(OCCNS(=O)(=O)c2cc(C)ccc2C)n1	active: 20.6 µM	–
Cc1ccc(OCc2cc(C(=O)N3CCN(CC(=O)NC(C)C)CC3)no2)cn1	inconclusive: 29.1 µM [activator, partial curve, poor fit]	–
O=[N+]([O-])c1ccc(O)c(-c2cc(C(F)(F)F)nc(-c3ccccc3)n2)c1	inconclusive: 0.82 µM [inhibitor, full curve, poor fit]	–
CCOc1ccc(NC2c3ccccc3C(=O)N2Cc2ccc3c(c2)OCO3)cc1 (stereo not drawn)	inconclusive: 23.1 µM [inhibitor, single point]	–
CCn1c(SCC(=O)Nc2c(C#N)cnn2-c2ccccc2)nnc1-c1cccs1	–	inactive: -2.71%
O=C(Nc1ccc(OC(F)(F)F)cc1)N1CCN(c2ccnc3cc(Cl)ccc23)CC1	active: 18.3 µM	–
O=C(O)c1c2c(nc3ccccc13)/C(=C/c1c(F)cccc1F)CCC2	inconclusive: 25.9 µM [activator, single point]	–
O=C(Nc1ccc2oc(-c3cccnc3)nc2c1)c1ccco1	inconclusive: 7.94 µM [activator, partial curve, poor fit]	–
CN(Cc1ccon1)Cc1cn(Cc2ccccc2)nc1-c1ccc2c(c1)OCO2	inconclusive: 29.1 µM [inhibitor, single point]	–
CCOC(=O)c1ccc(Nc2cc(C)nc(-c3ccccc3O)n2)cc1	inconclusive: 12.6 µM [inhibitor, partial curve, poor fit]	–
CCCn1c(SCc2nc(-c3cccs3)no2)nnc1-c1ccncc1	–	inactive: -2.28%
CN(N=Nc1cccc([N+](=O)[O-])c1)c1ccccc1	inconclusive: 18.3 µM [activator, partial curve]	–
COc1ccc(NC2=C(Cl)C(=O)N(CCc3ccccc3)C2=O)c(OC)c1	inconclusive: 16.4 µM [activator, single point]	–
CCc1ccc(S(=O)(=O)Nc2nnc(N)s2)cc1	–	inactive: 5.74%
O=C(c1ccc2ccccc2c1)N1CCN(Cc2ccccc2)CC1	inconclusive: 6.51 µM [activator, partial curve]	–
CCCC1Oc2ccccc2C(=O)N(CC(=O)c2ccc3c(c2)OCCO3)C1=O (stereo not drawn)	inconclusive: 18.3 µM [activator, single point]	–

Source: PubChem BioAssay AID504467 (National Center for Advancing Translational Sciences (NCATS), 2011)
